The list shows a part of the results.
What was measured:
Assay in all cases: glycan array binding signal (z-score within array); higher = stronger binding
Conditions in all cases: glycan notation: IUPAC condensed, linker removed
[1] = biological target: GlcNAc(b1-3)Gal(b1-4)GlcNAc(b1-3)Gal(b1-4)GlcNAc(b1-3)Gal(b1-4)GlcNAc(b1-3)Gal(b1-4)GlcNAc(b1-2)[GlcNAc(b1-3)Gal(b1-4)GlcNAc(b1-3)Gal(b1-4)GlcNAc(b1-3)Gal(b1-4)GlcNAc(b1-3)Gal(b1-4)GlcNAc(b1-6)]Man(a1-6)[GlcNAc(b1-3)Gal(b1-4)GlcNAc(b1-3)Gal(b1-4)GlcNAc(b1-3)Gal(b1-4)GlcNAc(b1-3)Gal(b1-4)GlcNAc(b1-2)Man(a1-3)]Man(b1-4)GlcNAc(b1-4)[Fuc(a1-6)]GlcNAc
Method in brief: (§1)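 The Consortium for Functional Glycomics database supplied 3228 glycan arrays, of which those lacking an available protein sequence were dropped. The binding signal, a within-array Z-score, was averaged across arrays of the same protein sequence and across linkers. Negative scores can be read as non-binding.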

[2] = biological target: GlcNAc(b1-3)Gal(b1-4)GlcNAc(b1-3)Gal(b1-4)GlcNAc(b1-3)GalNAc
Method in brief: as §1

[3] = biological target: GlcNAc(b1-3)Gal(b1-4)GlcNAc(b1-3)GalNAc
Method in brief: as §1

[4] = biological target: GlcNAc(b1-3)Gal(b1-4)GlcNAc(b1-3)[GlcNAc(b1-3)Gal(b1-4)GlcNAc(b1-3)]GalNAc
Method in brief: as §1

[5] = biological target: GlcNAc(b1-3)Gal(b1-4)GlcNAc(b1-6)[Gal(b1-3)]GalNAc
Method in brief: as §1

[6] = biological target: GlcNAc(b1-3)Gal(b1-4)GlcNAc(b1-6)[GlcNAc(b1-3)Gal(b1-3)]GalNAc
Method in brief: as §1

[7] = biological target: GlcNAc(b1-3)Gal(b1-4)GlcNAc(b1-6)[GlcNAc(b1-3)]Gal(b1-4)GlcNAc
Method in brief: as §1

GlcNAc(b1-3)GalNAc = biological target: GlcNAc(b1-3)GalNAc
Method in brief: as §1

GlcNAc(b1-3)Man = biological target: GlcNAc(b1-3)Man
Method in brief: as §1

[8] = biological target: GlcNAc(b1-3)[GlcNAc(b1-4)][GlcNAc(b1-6)]GlcNAc
Method in brief: as §1

[9] = biological target: GlcNAc(b1-3)[GlcNAc(b1-6)]Gal(b1-4)GlcNAc
Method in brief: as §1

[10] = biological target: GlcNAc(b1-3)[GlcNAc(b1-6)]GalNAc
Method in brief: as §1

[11] = biological target: GlcNAc(b1-4)Gal(b1-4)GlcNAc
Method in brief: as §1

GlcNAc(b1-4)GlcNAc = biological target: GlcNAc(b1-4)GlcNAc
Method in brief: as §1

[12] = biological target: GlcNAc(b1-4)GlcNAc(b1-4)GlcNAc
Method in brief: as §1

[13] = biological target: GlcNAc(b1-4)GlcNAc(b1-4)GlcNAc(b1-4)GlcNAc(b1-4)GlcNAc
Method in brief: as §1

[14] = biological target: GlcNAc(b1-4)GlcNAc(b1-4)GlcNAc(b1-4)GlcNAc(b1-4)GlcNAc(b1-4)GlcNAc
Method in brief: as §1

[15] = biological target: GlcNAc(b1-4)[GlcNAc(b1-6)]GalNAc
Method in brief: as §1

[16] = biological target: GlcNAc(b1-6)Gal(b1-4)GlcNAc
Method in brief: as §1

GlcNAc(b1-6)GalNAc = biological target: GlcNAc(b1-6)GalNAc
Method in brief: as §1

[17] = biological target: GlcNAc6S(b1-3)Gal(b1-4)GlcNAc
Method in brief: as §1

Kdn(a2-3)Gal(b1-3)GalNAc = biological target: Kdn(a2-3)Gal(b1-3)GalNAc
Method in brief: as §1

Kdn(a2-3)Gal(b1-3)GlcNAc = biological target: Kdn(a2-3)Gal(b1-3)GlcNAc
Method in brief: as §1

Kdn(a2-3)Gal(b1-4)Glc = biological target: Kdn(a2-3)Gal(b1-4)Glc
Method in brief: as §1

Kdn(a2-3)Gal(b1-4)GlcNAc = biological target: Kdn(a2-3)Gal(b1-4)GlcNAc
Method in brief: as §1

[18] = biological target: Kdn(a2-3)Gal(b1-4)[Fuc(a1-3)]GlcNAc
Method in brief: as §1

Kdn(a2-6)Gal(b1-4)GlcNAc = biological target: Kdn(a2-6)Gal(b1-4)GlcNAc
Method in brief: as §1

[19] = biological target: Man(a1-2)Man(a1-2)Man(a1-3)Man
Method in brief: as §1

[20] = biological target: Man(a1-2)Man(a1-2)Man(a1-6)[Man(a1-3)]Man
Method in brief: as §1

Man(a1-2)Man(a1-3)Man = biological target: Man(a1-2)Man(a1-3)Man
Method in brief: as §1

[21] = biological target: Man(a1-2)Man(a1-3)[Man(a1-2)Man(a1-6)]Man
Method in brief: as §1

[22] = biological target: Man(a1-2)Man(a1-3)[Man(a1-2)Man(a1-6)]Man(a1-6)[Man(a1-2)Man(a1-2)Man(a1-3)]Man
Method in brief: as §1

[23] = biological target: Man(a1-2)Man(a1-3)[Man(a1-2)Man(a1-6)]Man(a1-6)[Man(a1-2)Man(a1-2)Man(a1-3)]Man(b1-4)GlcNAc(b1-4)GlcNAc
Method in brief: as §1

[24] = biological target: Man(a1-2)Man(a1-3)[Man(a1-6)]Man(a1-6)[Man(a1-2)Man(a1-3)]Man(b1-4)GlcNAc(b1-4)GlcNAc
Method in brief: as §1

[25] = biological target: Man(a1-2)Man(a1-6)[Man(a1-3)]Man(a1-6)[Man(a1-2)Man(a1-2)Man(a1-3)]Man
Method in brief: as §1

[26] = biological target: Man(a1-2)Man(a1-6)[Man(a1-3)]Man(a1-6)[Man(a1-2)Man(a1-2)Man(a1-3)]Man(b1-4)GlcNAc(b1-4)GlcNAc
Method in brief: as §1

Man(a1-3)[Man(a1-6)]Man = biological target: Man(a1-3)[Man(a1-6)]Man
Method in brief: as §1

[27] = biological target: Man(a1-3)[Man(a1-6)]Man(a1-6)[Man(a1-2)Man(a1-3)]Man(b1-4)GlcNAc(b1-4)GlcNAc
Method in brief: as §1

[28] = biological target: Man(a1-3)[Man(a1-6)]Man(a1-6)[Man(a1-3)]Man
Method in brief: as §1

[29] = biological target: Man(a1-3)[Man(a1-6)]Man(a1-6)[Man(a1-3)]Man(b1-4)GlcNAc(b1-4)GlcNAc
Method in brief: as §1

[30] = biological target: Man(a1-3)[Man(a1-6)]Man(b1-4)GlcNAc(b1-4)GlcNAc
Method in brief: as §1

[31] = biological target: Man(a1-3)[Man(a1-6)]Man(b1-4)GlcNAc(b1-4)[Fuc(a1-6)]GlcNAc
Method in brief: as §1

Man(a1-6)Man = biological target: Man(a1-6)Man
Method in brief: as §1

Man(b1-4)GlcNAc = biological target: Man(b1-4)GlcNAc
Method in brief: as §1

MurNAc(b1-4)GlcNAc = biological target: MurNAc(b1-4)GlcNAc
Method in brief: as §1

B1: CD34 (Homo sapiens), P28906 (protein)
chain: MGSSHHHHHHSSGLVPRGSHMSTSLATSPTKPYTSSSPILSDIKAEIKCSGIREVKLTQGICLEQNKTSSCAEFKKDRGEGLARVLCGEEQADADAGAQVCSLLLAQSEVRPQCLLLVLANRTEISSKLQLMKKHQSDLKKLGILDFTEQDVASHQSYSQKT
glycan array binding signal (z-score) [1]: 1.54 | glycan array binding signal (z-score) [2]: -0.273 | glycan array binding signal (z-score) [3]: -0.037 | glycan array binding signal (z-score) [4]: 0.396 | glycan array binding signal (z-score) [5]: 0.216 | glycan array binding signal (z-score) [6]: 0.516 | glycan array binding signal (z-score) [7]: -0.158 | glycan array binding signal (z-score) (GlcNAc(b1-3)GalNAc): -0.689 | glycan array binding signal (z-score) (GlcNAc(b1-3)Man): 0.808 | glycan array binding signal (z-score) [8]: -0.998 | glycan array binding signal (z-score) [9]: -0.484 | glycan array binding signal (z-score) [10]: -0.655 | glycan array binding signal (z-score) [11]: 0.073 | glycan array binding signal (z-score) (GlcNAc(b1-4)GlcNAc): -0.017 | glycan array binding signal (z-score) [12]: -0.507 | glycan array binding signal (z-score) [13]: 0.087 | glycan array binding signal (z-score) [14]: -0.038 | glycan array binding signal (z-score) [15]: -0.694 | glycan array binding signal (z-score) [16]: -0.009 | glycan array binding signal (z-score) (GlcNAc(b1-6)GalNAc): 0.004 | glycan array binding signal (z-score) [17]: 0.83 | glycan array binding signal (z-score) (Kdn(a2-3)Gal(b1-3)GalNAc): -0.107 | glycan array binding signal (z-score) (Kdn(a2-3)Gal(b1-3)GlcNAc): 0.092 | glycan array binding signal (z-score) (Kdn(a2-3)Gal(b1-4)Glc): 0.635 | glycan array binding signal (z-score) (Kdn(a2-3)Gal(b1-4)GlcNAc): -0.524 | glycan array binding signal (z-score) [18]: 0.081 | glycan array binding signal (z-score) (Kdn(a2-6)Gal(b1-4)GlcNAc): -0.352 | glycan array binding signal (z-score) [19]: -0.939 | glycan array binding signal (z-score) [20]: -1.17 | glycan array binding signal (z-score) (Man(a1-2)Man(a1-3)Man): -0.525 | glycan array binding signal (z-score) [21]: -0.762 | glycan array binding signal (z-score) [22]: 0.583 | glycan array binding signal (z-score) [23]: 0.778 | glycan array binding signal (z-score) [24]: -0.726 | glycan array binding signal (z-score) [25]: -1.21 | glycan array binding signal (z-score) [26]: -0.031 | glycan array binding signal (z-score) (Man(a1-3)[Man(a1-6)]Man): 1.36 | glycan array binding signal (z-score) [27]: 0.6 | glycan array binding signal (z-score) [28]: 0.422 | glycan array binding signal (z-score) [29]: -0.335 | glycan array binding signal (z-score) [30]: -0.007 | glycan array binding signal (z-score) [31]: 0.466 | glycan array binding signal (z-score) (Man(a1-6)Man): 0.933 | glycan array binding signal (z-score) (Man(b1-4)GlcNAc): -0.398 | glycan array binding signal (z-score) (MurNAc(b1-4)GlcNAc): 1.79
